This is an account of results in article PMC7969620.

Protein sequences, listed by entry. Tags and fused reporters are not part of them.
UniProt Q676U5: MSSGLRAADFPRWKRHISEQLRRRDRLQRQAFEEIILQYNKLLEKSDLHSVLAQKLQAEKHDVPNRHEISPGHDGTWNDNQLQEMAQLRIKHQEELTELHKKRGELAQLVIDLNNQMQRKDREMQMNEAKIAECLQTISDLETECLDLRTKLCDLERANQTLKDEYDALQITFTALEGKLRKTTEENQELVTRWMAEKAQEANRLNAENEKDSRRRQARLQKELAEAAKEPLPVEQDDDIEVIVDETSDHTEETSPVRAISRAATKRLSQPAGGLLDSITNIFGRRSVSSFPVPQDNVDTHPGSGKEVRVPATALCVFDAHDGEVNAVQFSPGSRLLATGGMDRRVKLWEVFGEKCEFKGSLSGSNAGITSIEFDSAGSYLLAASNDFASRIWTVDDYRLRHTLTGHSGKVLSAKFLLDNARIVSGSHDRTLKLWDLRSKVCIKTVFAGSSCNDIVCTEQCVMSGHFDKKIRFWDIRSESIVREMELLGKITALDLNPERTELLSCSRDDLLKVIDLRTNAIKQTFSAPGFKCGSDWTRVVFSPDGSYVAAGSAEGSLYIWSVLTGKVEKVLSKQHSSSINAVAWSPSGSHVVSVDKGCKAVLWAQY

One assay concerns the target T1, GST-Rab26 (human) (UniProt Q9ULW5).
T1 sequence: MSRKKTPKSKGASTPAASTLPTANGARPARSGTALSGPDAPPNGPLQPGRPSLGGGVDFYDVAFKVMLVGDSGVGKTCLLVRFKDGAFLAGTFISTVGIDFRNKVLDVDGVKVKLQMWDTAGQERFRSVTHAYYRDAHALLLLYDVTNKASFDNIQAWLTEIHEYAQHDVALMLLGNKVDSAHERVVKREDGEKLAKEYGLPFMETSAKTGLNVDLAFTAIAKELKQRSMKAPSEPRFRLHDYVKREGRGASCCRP
Nature of the assay: pull-down; GST fusions coupled to GST-Sepharose 4B resin, incubated with supernatants of lysates of transfected 293t cells (20 mM HEPES pH 7.4, 150 mM NaCl, 0.5% Triton X-100) at 4 °C overnight; resin washed three times with lysis buffer containing 500, 300, 100 mM NaCl; bound proteins by western blot; only the target purified.

For a further assay, the target named is T2, GST-Rab26b (human) (UniProt Q9ULW5).
T2 sequence: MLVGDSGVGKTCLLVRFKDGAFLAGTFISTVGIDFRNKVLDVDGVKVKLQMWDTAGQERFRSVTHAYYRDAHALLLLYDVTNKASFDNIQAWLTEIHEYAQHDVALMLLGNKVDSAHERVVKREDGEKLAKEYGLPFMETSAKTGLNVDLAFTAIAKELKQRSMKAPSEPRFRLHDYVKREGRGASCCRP
Described as above.

These are yes or no findings as the source states them, for the method shown. Binding seen in cells or lysates may run through a third protein. Some results given as binding are weak or reduced against the parent protein; the word gives no strength. Sequences can lack the tags named with a protein.

With ATG16L1 (from UniProt Q676U5 1-607), the binding entry is “binds” with GST-Rab26 (human) and “no binding” with GST-Rab26b (human).
